Results: publication PMC9709975, “Chromatin-associated microprocessor assembly is regulated by the U1 snRNP auxiliary protein PRP40” (The Plant Cell, 2022)
Results are given in words; binding and its absence hold for the method and conditions named. For some assays here: Binding seen in cells or lysates may run through a third protein. Some entries that bind do so weakly or less than the wild type.

T1: PRE-MRNA PROCESSING PROTEIN 40b (AtPRP40b), recombinant (Arabidopsis thaliana) (UniProt F4JCC1)
T1 sequence: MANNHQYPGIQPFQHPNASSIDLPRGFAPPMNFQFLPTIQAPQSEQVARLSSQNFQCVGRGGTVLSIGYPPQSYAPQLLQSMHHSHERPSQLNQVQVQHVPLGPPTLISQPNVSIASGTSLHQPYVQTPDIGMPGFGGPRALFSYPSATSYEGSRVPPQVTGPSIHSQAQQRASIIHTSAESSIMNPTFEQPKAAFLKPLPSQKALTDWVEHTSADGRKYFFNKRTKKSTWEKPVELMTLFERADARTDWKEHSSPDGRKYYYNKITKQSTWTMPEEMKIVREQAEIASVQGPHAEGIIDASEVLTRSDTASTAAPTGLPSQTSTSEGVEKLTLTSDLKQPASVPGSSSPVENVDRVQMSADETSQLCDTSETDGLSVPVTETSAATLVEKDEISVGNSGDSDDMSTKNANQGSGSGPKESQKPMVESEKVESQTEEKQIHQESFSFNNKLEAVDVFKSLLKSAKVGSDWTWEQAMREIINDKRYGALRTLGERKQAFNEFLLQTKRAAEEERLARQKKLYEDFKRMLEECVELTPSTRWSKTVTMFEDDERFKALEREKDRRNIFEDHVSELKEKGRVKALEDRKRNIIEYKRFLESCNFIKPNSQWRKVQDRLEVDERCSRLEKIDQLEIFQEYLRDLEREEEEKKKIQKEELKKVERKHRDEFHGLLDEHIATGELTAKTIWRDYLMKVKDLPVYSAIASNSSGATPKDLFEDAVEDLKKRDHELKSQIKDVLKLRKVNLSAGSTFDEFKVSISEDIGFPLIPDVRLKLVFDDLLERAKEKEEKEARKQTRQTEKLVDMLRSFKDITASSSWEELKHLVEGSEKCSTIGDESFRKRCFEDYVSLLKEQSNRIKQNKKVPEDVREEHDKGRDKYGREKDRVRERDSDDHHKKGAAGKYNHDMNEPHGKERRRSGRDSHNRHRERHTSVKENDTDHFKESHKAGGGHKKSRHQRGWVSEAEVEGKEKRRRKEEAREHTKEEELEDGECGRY

T2: SERRATE (SE), in Arabidopsis cell nuclei (Arabidopsis thaliana (endogenous in Arabidopsis leaf nuclei)) (UniProt Q9ZVD0)
T2 sequence: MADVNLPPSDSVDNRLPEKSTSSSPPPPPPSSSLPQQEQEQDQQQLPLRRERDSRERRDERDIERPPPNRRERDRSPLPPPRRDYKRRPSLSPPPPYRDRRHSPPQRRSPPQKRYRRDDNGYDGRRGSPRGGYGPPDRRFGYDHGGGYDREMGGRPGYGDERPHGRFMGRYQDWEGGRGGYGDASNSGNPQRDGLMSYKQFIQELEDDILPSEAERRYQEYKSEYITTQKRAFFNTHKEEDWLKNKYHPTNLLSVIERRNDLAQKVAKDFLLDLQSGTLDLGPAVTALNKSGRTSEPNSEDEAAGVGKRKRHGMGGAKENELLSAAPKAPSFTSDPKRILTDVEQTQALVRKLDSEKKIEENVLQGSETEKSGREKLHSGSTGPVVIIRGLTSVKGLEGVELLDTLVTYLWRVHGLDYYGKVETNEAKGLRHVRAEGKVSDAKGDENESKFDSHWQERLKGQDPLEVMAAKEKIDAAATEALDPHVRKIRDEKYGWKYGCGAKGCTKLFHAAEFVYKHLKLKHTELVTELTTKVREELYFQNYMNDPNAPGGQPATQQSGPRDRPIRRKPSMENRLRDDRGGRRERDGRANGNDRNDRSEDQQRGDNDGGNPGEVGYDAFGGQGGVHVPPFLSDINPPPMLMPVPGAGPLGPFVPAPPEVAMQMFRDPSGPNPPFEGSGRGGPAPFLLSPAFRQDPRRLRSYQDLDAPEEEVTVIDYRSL


Experiments:
[1] = target: T1, PRE-MRNA PROCESSING PROTEIN 40b (AtPRP40b), recombinant (Arabidopsis thaliana); assay: pull-down; 2 µg biotinylated CTD peptide on streptavidin paramagnetic particles; 2 µg of SE variant and AtPRP40b together; 1.5 h at 4°C in PBS pH 8.3, 5% glycerol, 1 mM DTT, 0.1% NP-40; five washes, immunoblot; both purified
[2] = target: T2, SERRATE (SE), in Arabidopsis cell nuclei (Arabidopsis thaliana (endogenous in Arabidopsis leaf nuclei)); assay: proximity ligation; Duolink In Situ Orange Kit on nuclei isolated from fixed Arabidopsis leaves; WT, prp40ab and se-2 plants; rabbit antibodies to SE or AtPRP40b, rat antibodies to phosphorylated RNAPII

binding [1]	binding [2]	Binder
no binding (tested: 2 µg of SE variant)		SE protein lacking 40 C-terminal amino acids (SEΔ681-720), recombinant (domain or fragment, UniProt Q9ZVD0 1-680) MADVNLPPSDSVDNRLPEKSTSSSPPPPPPSSSLPQQEQEQDQQQLPLRRERDSRERRDERDIERPPPNRRERDRSPLPPPRRDYKRRPSLSPPPPYRDRRHSPPQRRSPPQKRYRRDDNGYDGRRGSPRGGYGPPDRRFGYDHGGGYDREMGGRPGYGDERPHGRFMGRYQDWEGGRGGYGDASNSGNPQRDGLMSYKQFIQELEDDILPSEAERRYQEYKSEYITTQKRAFFNTHKEEDWLKNKYHPTNLLSVIERRNDLAQKVAKDFLLDLQSGTLDLGPAVTALNKSGRTSEPNSEDEAAGVGKRKRHGMGGAKENELLSAAPKAPSFTSDPKRILTDVEQTQALVRKLDSEKKIEENVLQGSETEKSGREKLHSGSTGPVVIIRGLTSVKGLEGVELLDTLVTYLWRVHGLDYYGKVETNEAKGLRHVRAEGKVSDAKGDENESKFDSHWQERLKGQDPLEVMAAKEKIDAAATEALDPHVRKIRDEKYGWKYGCGAKGCTKLFHAAEFVYKHLKLKHTELVTELTTKVREELYFQNYMNDPNAPGGQPATQQSGPRDRPIRRKPSMENRLRDDRGGRRERDGRANGNDRNDRSEDQQRGDNDGGNPGEVGYDAFGGQGGVHVPPFLSDINPPPMLMPVPGAGPLGPFVPAPPEVAMQMFRDPSGPNPPFEGSGR
	binds	AtPRP40b, endogenous in Arabidopsis cell nuclei (protein, UniProt F4JCC1 1-992) MANNHQYPGIQPFQHPNASSIDLPRGFAPPMNFQFLPTIQAPQSEQVARLSSQNFQCVGRGGTVLSIGYPPQSYAPQLLQSMHHSHERPSQLNQVQVQHVPLGPPTLISQPNVSIASGTSLHQPYVQTPDIGMPGFGGPRALFSYPSATSYEGSRVPPQVTGPSIHSQAQQRASIIHTSAESSIMNPTFEQPKAAFLKPLPSQKALTDWVEHTSADGRKYFFNKRTKKSTWEKPVELMTLFERADARTDWKEHSSPDGRKYYYNKITKQSTWTMPEEMKIVREQAEIASVQGPHAEGIIDASEVLTRSDTASTAAPTGLPSQTSTSEGVEKLTLTSDLKQPASVPGSSSPVENVDRVQMSADETSQLCDTSETDGLSVPVTETSAATLVEKDEISVGNSGDSDDMSTKNANQGSGSGPKESQKPMVESEKVESQTEEKQIHQESFSFNNKLEAVDVFKSLLKSAKVGSDWTWEQAMREIINDKRYGALRTLGERKQAFNEFLLQTKRAAEEERLARQKKLYEDFKRMLEECVELTPSTRWSKTVTMFEDDERFKALEREKDRRNIFEDHVSELKEKGRVKALEDRKRNIIEYKRFLESCNFIKPNSQWRKVQDRLEVDERCSRLEKIDQLEIFQEYLRDLEREEEEKKKIQKEELKKVERKHRDEFHGLLDEHIATGELTAKTIWRDYLMKVKDLPVYSAIASNSSGATPKDLFEDAVEDLKKRDHELKSQIKDVLKLRKVNLSAGSTFDEFKVSISEDIGFPLIPDVRLKLVFDDLLERAKEKEEKEARKQTRQTEKLVDMLRSFKDITASSSWEELKHLVEGSEKCSTIGDESFRKRCFEDYVSLLKEQSNRIKQNKKVPEDVREEHDKGRDKYGREKDRVRERDSDDHHKKGAAGKYNHDMNEPHGKERRRSGRDSHNRHRERHTSVKENDTDHFKESHKAGGGHKKSRHQRGWVSEAEVEGKEKRRRKEEAREHTKEEELEDGECGRY
